Experimental data as given in PubChem BioAssay AID248 (DTP/NCI, 2004).
The list does not hold the whole screen: it is rich in T/C values a quarter to a half above the control, in often repeated tests (any T/C) and in doses without a T/C. Further doses and runs are listed elsewhere. T/C is the treated group as % of the vehicle group. Some doses have a count of surviving animals in place of a T/C: the source files T/C as zero there, which appears to mark a toxic dose or a test without result, not a measured value. Some doses without a T/C left all or most animals alive at the check, yet need not have been tolerated: survival well below the control is almost never listed, so the zero probably covers shortened survival too. Survivors were counted at the toxicity check, usually on the fifth day, unless a day is given; later deaths do not show. Schedules are NCI's codes, read here as Q, the interval in days (D) or hours (H), X, the number of doses. Some entries hold several experiments; their values stand side by side, smallest first. Additions like (4×) stand for listed records that agree. Some schedule codes hold Z or #, which are not explained here. For survival time, the PubChem record calls one and a half times the control and up active, and a quarter to a half above the control has no call in these data; cut-offs in other NCI protocols can differ.

Tested on: L1210 leukemia ip in BDF1 mice, survival T/C
Assay: NCI In Vivo Anticancer Drug Screen. Data for tumor model L1210 Leukemia (intraperitoneal) in B6D2F1 (BDF1) mice
Conditions: T/C endpoint: mean survival time, higher T/C = longer survival
[1] = dose: 12.5 mg/kg/injection, schedule: Q01DX010 (ip), vehicle: water
[2] = dose: 32.0 mg/kg/injection, schedule: Q01DX001 (oral), vehicle: saline

S=P(N1CC1)(N1CC1)N1CC1 was tested. Which survivor count (dose: 0.5 mg/kg/injection, schedule: Q04DX002 (ip), vehicle: saline) did it give?
The survivor count was 1 of 1.

And the T/C (dose: 1.0 mg/kg/injection, schedule: Q01DX009 (ip), vehicle: saline)?
Its T/C is 140 % of control.

And the T/C (dose: 1.5 mg/kg/injection, schedule: Q01DX009 (ip), vehicle: saline, evaluated on day 30)?
Its T/C is 97, 110, 118, 120 % of control.

What about the T/C (dose: 1.5 mg/kg/injection, schedule: Q01DX009 (ip), vehicle: saline, evaluated on day 60) of the same molecule?
Its T/C is 110 % of control.

What about the T/C (dose: 1.57 mg/kg/injection, schedule: Q01DX010 (ip), vehicle: water) of the same molecule?
Its T/C is 110 (2×), 122, 127 % of control.

What about the T/C (dose: 2.0 mg/kg/injection, schedule: Q01DX009 (ip), vehicle: saline) of the same molecule?
The T/C was 136 and 147 % of control.

And the T/C (dose: 3.0 mg/kg/injection, schedule: Q01DX009 (ip), vehicle: saline, evaluated on day 30)?
The T/C was 135, 137, 147, 148 % of control.

What about the T/C (dose: 3.0 mg/kg/injection, schedule: Q01DX009 (ip), vehicle: saline, evaluated on day 60) of the same molecule?
Its T/C is 137 % of control.

And the T/C (dose: 3.13 mg/kg/injection, schedule: Q01DX009 (ip), vehicle: saline)?
Its T/C is 135 and 141 % of control.

What about the T/C (dose: 3.13 mg/kg/injection, schedule: Q01DX010 (ip), vehicle: water) of the same molecule?
The T/C was 129, 153, 166 % of control (2×).

And the T/C (dose: 4.0 mg/kg/injection, schedule: Q04DX002 (ip), vehicle: saline)?
The T/C was 115, 116, 117, 118 % of control.

And the T/C (dose: 4.0 mg/kg/injection, schedule: Q04DX003 (ip), vehicle: saline)?
The T/C was 138 % of control.

What about the T/C (dose: 4.8 mg/kg/injection, schedule: Q01DX Z (ip), vehicle: carboxymethylcellulose (CMC)) of the same molecule?
Its T/C is 138 % of control.

What about the T/C (dose: 6.0 mg/kg/injection, schedule: Q01DX009 (ip), vehicle: saline, evaluated on day 30) of the same molecule?
Its T/C is 131, 150, 164, 201 % of control.

And the T/C (dose: 6.0 mg/kg/injection, schedule: Q01DX009 (ip), vehicle: saline, evaluated on day 60)?
Its T/C is 189 % of control.

What about the T/C (dose: 6.0 mg/kg/injection, schedule: Q01DX010 (oral), vehicle: carboxymethylcellulose (CMC)) of the same molecule?
The T/C was 130 % of control.

And the T/C (dose: 6.0 mg/kg/injection, schedule: Q01DX Z (ip), vehicle: carboxymethylcellulose (CMC))?
The T/C was 136 % of control.

What about the T/C (dose: 6.25 mg/kg/injection, schedule: Q01DX009 (ip), vehicle: saline) of the same molecule?
Its T/C is 147 % of control.

What about the T/C (dose: 6.25 mg/kg/injection, schedule: Q01DX010 (ip), vehicle: water) of the same molecule?
Its T/C is 100, 117, 127, 140 % of control.

And the T/C (dose: 8.0 mg/kg/injection, schedule: Q01DX001 (ip), vehicle: saline, evaluated on day 30)?
The T/C was 124 and 130 % of control.

And the T/C (dose: 8.0 mg/kg/injection, schedule: Q01DX001 (ip), vehicle: saline, evaluated on day 60)?
The T/C was 107 % of control.

What about the T/C (dose: 8.0 mg/kg/injection, schedule: Q01DX001 (ip), vehicle: saline, run until all animals had died) of the same molecule?
Its T/C is 118 % of control.

What about the T/C (dose: 8.0 mg/kg/injection, schedule: Q01DX009 (ip), vehicle: saline) of the same molecule?
The T/C was 146 % of control.

And the T/C (dose: 8.0 mg/kg/injection, schedule: Q04DX002 (ip), vehicle: saline)?
The T/C was 134, 136, 141, 148 % of control.

What about the T/C (dose: 10.0 mg/kg/injection, schedule: Q01DX001 (ip), vehicle: saline) of the same molecule?
Its T/C is 134 % of control.

And the survivor count (dose: 10.0 mg/kg/injection, schedule: Q01DX Z (ip), vehicle: saline)?
Its survivor count is 6 of 6.

And the T/C (dose: 11.0 mg/kg/injection, schedule: Q01DX001 (ip), vehicle: saline)?
The T/C was 127 and 135 % of control.

What about the T/C (dose: 12.0 mg/kg/injection, schedule: Q01DX001 (ip), vehicle: saline, evaluated on day 60) of the same molecule?
Its T/C is 144 % of control.

What about the T/C (dose: 12.0 mg/kg/injection, schedule: Q01DX001 (ip), vehicle: saline, run until all animals had died) of the same molecule?
Its T/C is 135 % of control.

What about the T/C [1] of the same molecule?
Its T/C is 96 % of control.

And the survivor count [1]?
Its survivor count is 6 of 6.

And the T/C (dose: 13.3 mg/kg/injection, schedule: Q01DX001 (ip), vehicle: saline)?
The T/C was 144 % of control.

And the T/C (dose: 14.0 mg/kg/injection, schedule: Q01DX001 (ip), vehicle: saline)?
Its T/C is 126 % of control.

And the T/C (dose: 16.0 mg/kg/injection, schedule: Q01DX001 (oral), vehicle: saline)?
Its T/C is 136 % of control.

What about the survivor count (dose: 16.0 mg/kg/injection, schedule: Q01DX009 (ip), vehicle: saline) of the same molecule?
Its survivor count is 9 of 10 and 6 of 6.

What about the T/C (dose: 16.0 mg/kg/injection, schedule: Q04DX002 (ip), vehicle: saline) of the same molecule?
The T/C was 173, 175, 184, 205 % of control.

And the T/C (dose: 16.0 mg/kg/injection, schedule: Q04DX003 (ip), vehicle: saline, evaluated on day 30)?
Its T/C is 138 % of control.

And the T/C (dose: 16.0 mg/kg/injection, schedule: Q04DX003 (ip), vehicle: saline, evaluated on day 60)?
The T/C was 138 % of control.

And the survivor count (dose: 24.0 mg/kg/injection, schedule: Q01DX001 (ip), vehicle: saline)?
The survivor count was 6 of 10.

And the survivor count (dose: 24.0 mg/kg/injection, schedule: Q01DX009 (ip), vehicle: saline)?
The survivor count was 6 of 10.

And the survivor count (dose: 25.0 mg/kg/injection, schedule: Q01DX010 (ip), vehicle: water)?
The survivor count was 0 of 6, 2 of 6, 3 of 6, 5 of 6.

And the survivor count (dose: 32.0 mg/kg/injection, schedule: Q01DX001 (ip), vehicle: saline)?
The survivor count was 1 of 6, 2 of 10, 3 of 6, 4 of 6, 7 of 10.

What about the T/C [2] of the same molecule?
The T/C was 132 % of control.

What about the survivor count [2] of the same molecule?
Its survivor count is 6 of 10.

What about the survivor count (dose: 32.0 mg/kg/injection, schedule: Q01DX009 (ip), vehicle: saline) of the same molecule?
The survivor count was 6 of 10, 4 of 6, 10 of 10.

And the survivor count (dose: 32.0 mg/kg/injection, schedule: Q04DX002 (ip), vehicle: saline)?
Its survivor count is 3 of 3.

And the survivor count (dose: 32.0 mg/kg/injection, schedule: Q04DX003 (ip), vehicle: saline)?
The survivor count was 5 of 6, 9 of 10, 10 of 10.

And the survivor count (dose: 48.0 mg/kg/injection, schedule: Q01DX001 (ip), vehicle: saline)?
The survivor count was 1 of 6, 2 of 10, 5 of 6.

And the survivor count (dose: 48.0 mg/kg/injection, schedule: Q01DX010 (oral), vehicle: carboxymethylcellulose (CMC))?
The survivor count was 5 of 6.

What about the survivor count (dose: 50.0 mg/kg/injection, schedule: Q01DX001 (ip), vehicle: saline) of the same molecule?
Its survivor count is 6 of 6.

What about the survivor count (dose: 64.0 mg/kg/injection, schedule: Q01DX001 (ip), vehicle: saline) of the same molecule?
The survivor count was 2 of 10 (2×) and 4 of 6.

And the survivor count (dose: 64.0 mg/kg/injection, schedule: Q01DX001 (oral), vehicle: saline)?
The survivor count was 1 of 10.

What about the survivor count (dose: 64.0 mg/kg/injection, schedule: Q01DX009 (ip), vehicle: saline) of the same molecule?
The survivor count was 6 of 10, 5 of 6, 10 of 10.
